# Primary screen of a compound library

The values are deposited in ChEMBL (CHEMBL3988442, “University of Dundee, Small-Polar-MMV Screening Library” (2021)).

Mtb cholesterol medium: 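Growth of Mycobacterium tuberculosis over 4 days (cholesterol / DPPC medium with tyloxapol); the read-out is not stated. Tested at 50 µM. Direction is inferred from retests: higher values go with more growth inhibition. Size under these conditions: about 69,000 compounds, about 370 of them at 50% or above in at least one test.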
Mtb glucose medium: 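Growth of Mycobacterium tuberculosis over 3 days (7H9 medium with glucose and tyloxapol); the read-out is not stated. Concentration: 50 µM. Higher reads as more growth inhibition (inferred: compounds with an IC50 in retests scored well above the rest). About 69,000 compounds were tested under these conditions; 1.1% (about 760) showed 50% or more at least once.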

The filed quantity is “Percent Effect” (%).
The record does not define 0% and 100%; most values in the screen are far below 50% and negative numbers occur (in some assays of this library far below -100).
This is an unselected part of the compounds tested.
Two or more numbers in one place are separate tests of the same structure; such repeats can differ widely.

| # | structure | Mtb cholesterol medium | Mtb glucose medium |
|---|---|---|---|
| 1 | `CC(=O)c1cccc(OCCCC(=O)N(C)Cc2cscn2)c1` | -23.89 | -0.04431 & -1.54 |
| 2 | `COc1c(C2CCCN2C(=O)c2cncnc2C)c(C)nn1C` (centres undefined) | -27.29 | -40.73 |
| 3 | `Cc1nc(CCN2CCC(Oc3ccccc3F)CC2)c(C)s1` | 12.44 | 14.93 |
| 4 | `CCC[C@H]1CN(Cc2cscn2)C[C@@H]1NC(=O)C1(COC)CCC1` | 19.94 | 32.94 |
| 5 | `COc1cccc2c1OCC(C(=O)N1CCC(NS(C)(=O)=O)CC1)C2` (centres undefined) | 3.925 & 4.993 | -4.741 |
| 6 | `COCCN1CCCC2(CCC(=O)N2Cc2cccnc2)C1.O=C(O)C(F)(F)F` (centres undefined) | 0.3783 | -21.09 |
| 7 | `c1cnc(-c2nc(CN3CCOC(Cn4cncn4)C3)cs2)nc1` (centres undefined) | -34.11 | -16.63 |
| 8 | `CCNC(=O)CN1CCN(Cc2nc3c(F)cccc3n2CC)CC1` | -2.66 | 18.31 |
| 9 | `CS(=O)(=O)c1ncc(CN2CCCC(C(N)=O)C2)n1CC1CCCCC1` (centres undefined) | -18.15 | 7.227 |
| 10 | `O=C(O)C(F)(F)F.O=C(O)C(F)(F)F.[H][C@@]12CN(Cc3scnc3C)C[C@H](C(=O)NCCOC)[C@]1([H])CCO2` | -8.245 | -19.42 |
| 11 | `O=C(O)C(F)(F)F.O=C(O)C(F)(F)F.O=C(O)C(F)(F)F.O=C(O)C(F)(F)F.[H][C@@]12CCCO[C@]1([H])[C@H](N(C)Cc1cccnc1)CN2Cc1cnn(C)c1` | -17.67 | -19.39 |
| 12 | `O=C(O)C(F)(F)F.[H][C@@]12CCN(S(=O)(=O)CC)C[C@]1([H])OCCN(Cc1cccnc1)C2=O` | -2.337 | -6.933 |
| 13 | `CC(=O)N1CCC2(CC1)CN(C(=O)c1cccnc1)c1ccc(F)cc12.O=C(O)C(F)(F)F` | -21.26 | 3.871 |
| 14 | `CC(C)Cc1ncc2c(n1)CN(c1cc(N3CCCC3)nc(N)n1)C2` | -25.29 | 1.873 |
| 15 | `CC/C=C(/C)C(=O)N1CSCC1C(=O)N(C)CCc1ccncc1` (centres undefined) | -10.96 | -0.955 & 10.45 |
| 16 | `COc1cccc2c1OCC(CNC(=O)Cc1cnccn1)C2` (centres undefined) | -4.229 & -28.85 | -22.44 & -6.85 |
| 17 | `COC(=O)c1sc2cccc(F)c2c1CNC(=O)C1CC1` | -5.193 | -10.51 |
| 18 | `O=C(O)C(F)(F)F.[H][C@@]12CN(Cc3cnn(C)c3)C[C@]1([H])C(=O)N(c1cncnc1)C2` | -23.02 | -2.991 & -13.81 |
| 19 | `CN(C)CC1CN(Cc2ccsc2)Cc2nccn2C1.O=C(O)C(F)(F)F.O=C(O)C(F)(F)F` (centres undefined) | -22.74 | -10.17 |
| 20 | `CCN(CC1CCCO1)C(=O)Nc1cc(C(=O)OC)ccc1F` (centres undefined) | -8.258 | -36.01 |
| 21 | `O=C(O)C(F)(F)F.[H][C@@]12CCN(c3ncccn3)C[C@@]1([H])[C@H](C(=O)NCc1ccco1)CCO2` | -6.905 | -0.7798 |
| 22 | `CCC1(C)Cc2ccccc2-c2nc(NCCO)nc(O)c21` (centres undefined) | 2.197 | 1.486 |
| 23 | `Cc1cc(C)c(C(=O)N2CCOCC2c2c(C)n[nH]c2C)o1` (centres undefined) | -2.562 | -19.16 |
| 24 | `Cc1cc(-c2cnc(NC3CC3)nc2-c2ccoc2C)on1` | 4.846 | 34.67 |
| 25 | `COCC(C)NCc1nc(-c2ccc(C)cc2)c(-c2ccccn2)[nH]1` (centres undefined) | 1.372 | 30.03 |
| 26 | `COc1ccc(NC(=O)Cn2nc(C)ccc2=O)cc1OC` | 7.64 | -2.632 |
| 27 | `CN(CC(=O)N1CCN(CC(C)(C)O)CC1)c1ccc(Cl)cn1` | 22.14 | -0.5415 & -17.98 |
| 28 | `Cc1nc(C)n(CC2CCCN2CCOc2ccccc2F)n1` (centres undefined) | -19.69 | -21.69 |
| 29 | `CCc1c(NCc2ccc(F)cc2)cnn1CC(C)C` | -4.76 | -10.76 & 3.104 |
| 30 | `CN(C)c1ncccc1CNC(=O)NCCN(C)C1CCCC1` | -26.16 | -46.77 |
| 31 | `c1ccc(OCCN2CCC(c3cnccn3)CC2)cc1` | -19.91 & -8.521 | -14.66 |
| 32 | `Cc1ccc2c(c1)SCC(=O)N2CC(=O)N1CCCC1c1cc(C)no1` (centres undefined) | -1.502 & -18.44 | -9.696 |
| 33 | `Cc1cc(CN2CCC(c3nccn3C(C)C)CC2)ccc1F` | -17.91 | -8.326 |
| 34 | `CCNC(=O)C1(CC2CC(c3ccccc3OC)=NO2)CCOCC1` (centres undefined) | -10.14 | 12.06 |
| 35 | `CN1CCC2(COCCN(Cc3cccc(C#N)c3)C2)C1.O=C(O)C(F)(F)F.O=C(O)C(F)(F)F` (centres undefined) | -15.29 | -12.22 & -15.89 |
| 36 | `O=C(O)c1ccn(COc2c(Cl)cccc2Cl)n1` | 6.749 | -2.587 |
| 37 | `Cn1ccnc1SCCNC(=O)c1c[nH]nc1C1CCCCC1` | 1.587 | 8.055 |
| 38 | `COc1cccc(-c2nc(CNCCn3cccn3)cs2)c1` | -3.347 | -20.49 |
| 39 | `Nc1cc2c(nn1)CCN(C(=O)CC1CCCCC1)C2` | 4.749 | -39.93 |
| 40 | `CCc1nc(CN(C(C)=O)C2CCN(CCc3ccccc3)C2)no1` (centres undefined) | -9.353 | -10.09 |
| 41 | `COc1cccc(CNCc2nnc3n2CC(C(F)(F)F)CC3)c1` (centres undefined) | -4.123 | 17.6 |
| 42 | `N[C@H]1CN(C(=O)c2ccc(Cl)cc2F)C[C@@H]1C1CC1` | 0.3942 | 2.857 & -11.04 |
| 43 | `CCC1C(=O)NCCN1c1cc(C)ncn1` (centres undefined) | 13.88 | 1.323 |
| 44 | `Cc1ccc(Oc2nccnc2C2CCN(C(=O)C(C)(C)N)CC2)cc1` | -2.282 | 8.93 |
| 45 | `Cc1ccc(NC(=O)c2cccc(OCc3nnnn3C)c2)nc1` | -10.19 | 3.759 |
| 46 | `CCc1ccc(C(=O)N2CC[C@](C)(O)C(C)(C)C2)[nH]1` | -5.155 | -3.091 & 10.09 |
| 47 | `Cc1occc1CNc1ncccc1S(N)(=O)=O` | -25.74 | -42.82 |
| 48 | `CN(Cc1ccccc1)CC1CC2(CO1)CN(Cc1nccs1)C2` (centres undefined) | 11.31 & -1.286 | 35.62 & 4.354 |
| 49 | `Cc1ncc(C(=O)NCCNC(=O)c2ccccc2)s1` | -0.2272 | -11 |
| 50 | `CC(C)c1cn(CC(=O)NC2CC(=O)N(CCc3ccccc3)C2)nn1` (centres undefined) | 13.14 | 14.32 |
| 51 | `CC(C)COCCC(=O)NCCC(=O)N1CCN(c2ccccn2)CC1` | -8.378 | 21.47 |
| 52 | `O=C(O)C(F)(F)F.O=C(O)C(F)(F)F.[H][C@@]12COC[C@]1(CNS(C)(=O)=O)CN(Cc1cccnc1OC)C2` | -13.09 | 15.83 |
| 53 | `CCN(CC)C(=O)c1nc2c(s1)CCN(Cc1cccc(OC)c1)CC2.O=C(O)C(F)(F)F` | -12.18 | 6.281 & -16.19 |
| 54 | `CC(C)n1ccnc1CN1CCOC(C)(C(=O)N2CCOCC2)C1` (centres undefined) | 0.861 | -3.77 |

The last 5 entries again:

structure,Mtb cholesterol medium,Mtb glucose medium
CC(C)c1cn(CC(=O)NC2CC(=O)N(CCc3ccccc3)C2)nn1 (centres undefined),13.14,14.32
CC(C)COCCC(=O)NCCC(=O)N1CCN(c2ccccn2)CC1,-8.378,21.47
O=C(O)C(F)(F)F.O=C(O)C(F)(F)F.[H][C@@]12COC[C@]1(CNS(C)(=O)=O)CN(Cc1cccnc1OC)C2,-13.09,15.83
CCN(CC)C(=O)c1nc2c(s1)CCN(Cc1cccc(OC)c1)CC2.O=C(O)C(F)(F)F,-12.18,6.281 & -16.19
CC(C)n1ccnc1CN1CCOC(C)(C(=O)N2CCOCC2)C1 (centres undefined),0.861,-3.77